{"source": "PubChem BioAssay AID652272 (Drosophila RNAi Screening Center, 2013)", "test": "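Finding fly genes that regulate Hedgehog signal transduction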 (primary screen)", "system": "Drosophila clone 8 (Cl8) cells", "reagents": "long dsRNA against Drosophila genes", "read-out": "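Plate reader light from a firefly reporter under a ptc promoter fragment that responds to Hedgehog, with Renilla light as transfection reference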", "scale": "firefly Hh reporter signal: higher = more ptc reporter light; Renilla reference signal: higher = more Renilla control light", "rule for the call": "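Called a hit if the two-replicate mean z-score lies below -2 or above +3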", "calls": "active = hit: reporter lowered or raised; inactive = not a hit", "note": "The screen tested about 21,000 reagents; this is an unselected part of those with a known target gene and a result. In the full data, 503 (2.4%) are marked active. 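Raw plate light values, not normalised; calls rest on replicate z-scores that were not deposited; hits include reporter decreases as well as increases.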 A plus sign joins genes that one reagent is predicted to hit. The record does not give: the amount of reagent, the time to read-out."}
{"target gene":"CG34148 + P5CDh2","amplicon":"DRSC13519","firefly Hh reporter signal, replicate 1":68096,"firefly Hh reporter signal, replicate 2":3.17e5,"Renilla reference signal, replicate 1":14364,"Renilla reference signal, replicate 2":7613,"Outcome":"inactive"}
{"target gene":"GstD9","amplicon":"DRSC14185","firefly Hh reporter signal, replicate 1":58178,"firefly Hh reporter signal, replicate 2":1.03e5,"Renilla reference signal, replicate 1":1808,"Renilla reference signal, replicate 2":2640,"Outcome":"inactive"}
{"target gene":"CG10139","amplicon":"DRSC05972","firefly Hh reporter signal, replicate 1":1.19e5,"firefly Hh reporter signal, replicate 2":68841,"Renilla reference signal, replicate 1":2453,"Renilla reference signal, replicate 2":1040,"Outcome":"inactive"}
{"target gene":"CG34160","amplicon":"DRSC01131","firefly Hh reporter signal, replicate 1":5.13e5,"firefly Hh reporter signal, replicate 2":2.24e5,"Renilla reference signal, replicate 1":25365,"Renilla reference signal, replicate 2":8727,"Outcome":"inactive"}
{"target gene":"CG16815","amplicon":"DRSC02521","firefly Hh reporter signal, replicate 1":1.69e5,"firefly Hh reporter signal, replicate 2":51641,"Renilla reference signal, replicate 1":3832,"Renilla reference signal, replicate 2":3905,"Outcome":"inactive"}
{"target gene":"CG33177","amplicon":"DRSC19949","firefly Hh reporter signal, replicate 1":70736,"firefly Hh reporter signal, replicate 2":2.09e5,"Renilla reference signal, replicate 1":2465,"Renilla reference signal, replicate 2":9304,"Outcome":"inactive"}
{"target gene":"Alp10","amplicon":"DRSC09749","firefly Hh reporter signal, replicate 1":53165,"firefly Hh reporter signal, replicate 2":49152,"Renilla reference signal, replicate 1":5245,"Renilla reference signal, replicate 2":3350,"Outcome":"inactive"}
{"target gene":"Rcc1","amplicon":"DRSC09684","firefly Hh reporter signal, replicate 1":70685,"firefly Hh reporter signal, replicate 2":59380,"Renilla reference signal, replicate 1":3408,"Renilla reference signal, replicate 2":2897,"Outcome":"inactive"}
{"target gene":"Bap170","amplicon":"DRSC04964","firefly Hh reporter signal, replicate 1":1.70e5,"firefly Hh reporter signal, replicate 2":1.23e5,"Renilla reference signal, replicate 1":7157,"Renilla reference signal, replicate 2":5350,"Outcome":"inactive"}
{"target gene":"CG32647","amplicon":"DRSC19690","firefly Hh reporter signal, replicate 1":88131,"firefly Hh reporter signal, replicate 2":2.08e5,"Renilla reference signal, replicate 1":2864,"Renilla reference signal, replicate 2":8498,"Outcome":"inactive"}
{"target gene":"CG32647","amplicon":"DRSC19878","firefly Hh reporter signal, replicate 1":1.18e5,"firefly Hh reporter signal, replicate 2":51076,"Renilla reference signal, replicate 1":6715,"Renilla reference signal, replicate 2":2357,"Outcome":"inactive"}
{"target gene":"CG8654","amplicon":"DRSC07231","firefly Hh reporter signal, replicate 1":76884,"firefly Hh reporter signal, replicate 2":52196,"Renilla reference signal, replicate 1":3386,"Renilla reference signal, replicate 2":2684,"Outcome":"inactive"}
{"target gene":"Rh2","amplicon":"DRSC16821","firefly Hh reporter signal, replicate 1":5.82e5,"firefly Hh reporter signal, replicate 2":1.19e5,"Renilla reference signal, replicate 1":26262,"Renilla reference signal, replicate 2":3367,"Outcome":"inactive"}
{"target gene":"CG17036","amplicon":"DRSC02564","firefly Hh reporter signal, replicate 1":1.36e5,"firefly Hh reporter signal, replicate 2":63708,"Renilla reference signal, replicate 1":3625,"Renilla reference signal, replicate 2":5831,"Outcome":"inactive"}
{"target gene":"HP1c","amplicon":"DRSC16166","firefly Hh reporter signal, replicate 1":1.23e5,"firefly Hh reporter signal, replicate 2":6.65e5,"firefly Hh reporter signal, replicate 3":1.05e5,"Renilla reference signal, replicate 1":5520,"Renilla reference signal, replicate 2":39698,"Outcome":"inactive"}
{"target gene":"CG8306","amplicon":"DRSC07141","firefly Hh reporter signal, replicate 1":1.03e5,"firefly Hh reporter signal, replicate 2":64992,"Renilla reference signal, replicate 1":5845,"Renilla reference signal, replicate 2":3051,"Outcome":"inactive"}
{"target gene":"Tsf1","amplicon":"DRSC20296","firefly Hh reporter signal, replicate 1":1.01e5,"firefly Hh reporter signal, replicate 2":4.16e5,"Renilla reference signal, replicate 1":1735,"Renilla reference signal, replicate 2":14985,"Outcome":"inactive"}
{"target gene":"raw","amplicon":"DRSC03599","firefly Hh reporter signal, replicate 1":67555,"firefly Hh reporter signal, replicate 2":52179,"Renilla reference signal, replicate 1":1492,"Renilla reference signal, replicate 2":5184,"Outcome":"inactive"}
{"target gene":"raw","amplicon":"DRSC03600","firefly Hh reporter signal, replicate 1":73106,"firefly Hh reporter signal, replicate 2":47603,"Renilla reference signal, replicate 1":1904,"Renilla reference signal, replicate 2":3881,"Outcome":"inactive"}
{"target gene":"CG4511","amplicon":"DRSC15589","firefly Hh reporter signal, replicate 1":65287,"firefly Hh reporter signal, replicate 2":1.26e5,"Renilla reference signal, replicate 1":2119,"Renilla reference signal, replicate 2":3984,"Outcome":"inactive"}
{"target gene":"Ge-1","amplicon":"DRSC02938","firefly Hh reporter signal, replicate 1":47499,"firefly Hh reporter signal, replicate 2":74985,"Renilla reference signal, replicate 1":2235,"Renilla reference signal, replicate 2":3387,"Outcome":"inactive"}
